Assay results: publication doi:10.1101/2025.10.21.683800
No constants are given. Whether binding was seen depends on the method and setting. In cells and extracts the contact can be indirect. Some binding calls cover weakened binding; strength is not graded here.

Chains of the proteins cited; added tags and fusions are not shown.
UniProt P36873: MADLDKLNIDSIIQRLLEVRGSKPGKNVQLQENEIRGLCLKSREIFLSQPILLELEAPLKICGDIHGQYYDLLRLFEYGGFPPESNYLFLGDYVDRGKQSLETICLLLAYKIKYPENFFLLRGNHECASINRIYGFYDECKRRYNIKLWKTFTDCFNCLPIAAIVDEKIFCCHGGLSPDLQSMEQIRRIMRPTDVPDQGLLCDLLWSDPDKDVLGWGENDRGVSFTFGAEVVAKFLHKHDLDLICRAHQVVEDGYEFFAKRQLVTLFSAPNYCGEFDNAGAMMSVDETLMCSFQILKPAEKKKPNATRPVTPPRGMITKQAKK

B1: PPP1R2 in HeLa lysate (protein, UniProt P41236 1-205)
chain: MAASTASHRPIKGILKNKTSTTSSMVASAEQPRGNVDEELSKKSQKWDEMNILATYHPADKDYGLMKIDEPSTPYHSMMGDDEDACSDTEATEAMAPDILARKLAAAEGLEPKYRIQEQESSGEEDSDLSPEEREKKRQFEMKRKLHYNEGLNIKLARQLISKDLHDDDEDEEMLETADGESMNTEESNQGSTPSDQQQNKLRSS
B2: PPP1R10 in HeLa lysate (protein, UniProt Q96QC0 1-940)
chain: MGSGPIDPKELLKGLDSFLNRDGEVKSVDGISKIFSLMKEARKMVSRCTYLNILLQTRSPEILVKFIDVGGYKLLNNWLTYSKTTNNIPLLQQILLTLQHLPLTVDHLKQNNTAKLVKQLSKSSEDEELRKLASVLVSDWMAVIRSQSSTQPAEKDKKKRKDEGKSRTTLPERPLTEVKAETRAEEAPEKKREKPKSLRTTAPSHAKFRSTGLELETPSLVPVKKNASTVVVSDKYNLKPIPLKRQSNVAAPGDATPPAEKKYKPLNTTPNATKEIKVKIIPPQPMEGLGFLDALNSAPVPGIKIKKKKKVLSPTAAKPSPFEGKTSTEPSTAKPSSPEPAPPSEAMDADRPGTPVPPVEVPELMDTASLEPGALDAKPVESPGDPNQLTRKGRKRKSVTWPEEGKLREYFYFELDETERVNVNKIKDFGEAAKREILSDRHAFETARRLSHDNMEEKVPWVCPRPLVLPSPLVTPGSNSQERYIQAEREKGILQELFLNKESPHEPDPEPYEPIPPKLIPLDEECSMDETPYVETLEPGGSGGSPDGAGGSKLPPVLANLMGSMGAGKGPQGPGGGGINVQEILTSIMGSPNSHPSEELLKQPDYSDKIKQMLVPHGLLGPGPIANGFPPGGPGGPKGMQHFPPGPGGPMPGPHGGPGGPVGPRLLGPPPPPRGGDPFWDGPGDPMRGGPMRGGPGPGPGPYHRGRGGRGGNEPPPPPPPFRGARGGRSGGGPPNGRGGPGGGMVGGGGHRPHEGPGGGMGNSSGHRPHEGPGGGMGSGHRPHEGPGGSMGGGGGHRPHEGPGGGISGGSGHRPHEGPGGGMGAGGGHRPHEGPGGSMGGSGGHRPHEGPGHGGPHGHRPHDVPGHRGHDHRGPPPHEHRGHDGPGHGGGGHRGHDGGHSHGGDMSNRPVCRHFMMKGNCRYENNCAFYHPGVNGPPLP

Target: PPP1CC, catalytic subunit of PP1, in HeLa lysate (human (endogenous in HeLa)) (UniProt P36873)
Experiment: co-IP

| Binder | binding |
| --- | --- |
| B1 | binds |
| B2 | binds |
